Results are given in words; binding and its absence hold for the method and conditions named. Binding seen in cells or lysates may run through a third protein. A result given as binding can be weak or reduced; the word gives no strength.
Target: T1, endogenous AKTIP (human (endogenous in HEK 293 and LNCaP)) (UniProt Q9H8T0)
T1 sequence: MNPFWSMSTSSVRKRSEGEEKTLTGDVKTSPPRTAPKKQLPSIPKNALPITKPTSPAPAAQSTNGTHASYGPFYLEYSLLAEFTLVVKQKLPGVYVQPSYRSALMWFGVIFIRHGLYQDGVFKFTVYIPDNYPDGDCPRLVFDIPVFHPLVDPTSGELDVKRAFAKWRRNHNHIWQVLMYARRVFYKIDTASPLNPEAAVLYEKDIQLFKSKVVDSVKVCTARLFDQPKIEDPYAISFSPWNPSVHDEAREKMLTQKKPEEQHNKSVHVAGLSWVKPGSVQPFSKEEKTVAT
Test: co-IP; LNCaP cell extracts with or without THD treatment, precipitated with AKTIP specific antibody, protein A/G agarose beads, immunoblotting of AKT and AKTIP

binding: binds
Substance: endogenous AKT (human (endogenous in LNCaP)) (enzyme)

Source: publication PMC8830441, “Interaction of TLK1 and AKTIP as a Potential Regulator of AKT Activation in Castration-Resistant Prostate Cancer Progression” (Pathophysiology, 2021)
